# Percent effect of library compounds

Amino acid sequences for entries named in this document (tags omitted). Residues count along the entry.
UniProt I6X8D2, whole entry: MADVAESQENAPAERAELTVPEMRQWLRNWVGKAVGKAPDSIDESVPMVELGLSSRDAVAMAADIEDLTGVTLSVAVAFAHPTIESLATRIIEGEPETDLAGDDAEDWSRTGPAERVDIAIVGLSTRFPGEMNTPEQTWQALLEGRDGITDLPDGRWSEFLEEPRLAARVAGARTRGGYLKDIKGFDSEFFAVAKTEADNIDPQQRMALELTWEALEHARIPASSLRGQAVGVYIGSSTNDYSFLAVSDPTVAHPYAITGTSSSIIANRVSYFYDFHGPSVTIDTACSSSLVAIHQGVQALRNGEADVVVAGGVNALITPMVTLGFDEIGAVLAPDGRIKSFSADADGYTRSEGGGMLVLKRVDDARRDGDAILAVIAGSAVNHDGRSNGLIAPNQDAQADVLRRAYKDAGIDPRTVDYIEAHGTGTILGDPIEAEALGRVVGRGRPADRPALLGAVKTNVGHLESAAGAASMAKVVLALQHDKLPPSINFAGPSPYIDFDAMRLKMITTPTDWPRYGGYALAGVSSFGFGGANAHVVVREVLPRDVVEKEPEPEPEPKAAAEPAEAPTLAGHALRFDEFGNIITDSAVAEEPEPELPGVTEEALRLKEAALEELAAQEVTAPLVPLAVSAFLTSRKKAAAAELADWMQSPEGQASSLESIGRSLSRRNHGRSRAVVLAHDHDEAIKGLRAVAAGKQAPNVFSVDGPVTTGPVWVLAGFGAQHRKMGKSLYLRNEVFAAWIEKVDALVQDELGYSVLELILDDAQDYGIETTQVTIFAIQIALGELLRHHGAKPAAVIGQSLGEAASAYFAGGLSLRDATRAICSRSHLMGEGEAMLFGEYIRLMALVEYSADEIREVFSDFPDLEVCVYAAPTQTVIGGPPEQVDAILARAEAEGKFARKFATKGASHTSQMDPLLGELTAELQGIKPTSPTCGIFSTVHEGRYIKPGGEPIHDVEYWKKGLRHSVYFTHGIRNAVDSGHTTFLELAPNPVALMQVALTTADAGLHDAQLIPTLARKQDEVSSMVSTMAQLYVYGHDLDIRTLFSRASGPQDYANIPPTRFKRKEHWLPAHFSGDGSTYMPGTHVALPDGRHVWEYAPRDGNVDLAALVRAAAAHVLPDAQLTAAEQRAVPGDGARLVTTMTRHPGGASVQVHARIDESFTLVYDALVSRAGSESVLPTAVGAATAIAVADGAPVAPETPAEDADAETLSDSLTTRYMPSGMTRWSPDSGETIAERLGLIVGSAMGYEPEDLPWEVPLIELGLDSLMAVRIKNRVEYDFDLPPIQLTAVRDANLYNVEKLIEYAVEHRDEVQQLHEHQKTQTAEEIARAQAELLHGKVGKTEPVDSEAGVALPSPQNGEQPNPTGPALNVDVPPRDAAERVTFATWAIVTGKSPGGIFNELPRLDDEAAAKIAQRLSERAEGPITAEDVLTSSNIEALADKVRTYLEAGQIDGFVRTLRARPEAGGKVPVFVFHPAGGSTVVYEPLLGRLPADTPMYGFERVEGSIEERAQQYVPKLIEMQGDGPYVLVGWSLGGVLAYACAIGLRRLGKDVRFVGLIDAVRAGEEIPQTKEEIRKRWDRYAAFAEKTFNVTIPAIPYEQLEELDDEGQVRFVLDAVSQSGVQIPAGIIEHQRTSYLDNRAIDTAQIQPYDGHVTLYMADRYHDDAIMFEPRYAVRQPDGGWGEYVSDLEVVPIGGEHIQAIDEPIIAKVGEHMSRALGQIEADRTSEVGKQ
UniProt A4I591, 1-473: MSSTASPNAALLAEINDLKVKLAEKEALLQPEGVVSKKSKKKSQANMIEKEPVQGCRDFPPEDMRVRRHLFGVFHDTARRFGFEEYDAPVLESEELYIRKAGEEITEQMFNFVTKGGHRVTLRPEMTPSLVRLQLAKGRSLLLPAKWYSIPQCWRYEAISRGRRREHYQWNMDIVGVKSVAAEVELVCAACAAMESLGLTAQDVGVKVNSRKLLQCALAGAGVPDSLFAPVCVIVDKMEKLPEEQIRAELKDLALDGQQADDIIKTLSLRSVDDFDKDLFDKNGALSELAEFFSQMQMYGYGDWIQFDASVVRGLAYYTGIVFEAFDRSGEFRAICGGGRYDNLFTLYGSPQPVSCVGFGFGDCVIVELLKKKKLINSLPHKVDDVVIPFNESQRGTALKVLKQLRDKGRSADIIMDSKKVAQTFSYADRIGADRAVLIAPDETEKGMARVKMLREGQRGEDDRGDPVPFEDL

Source: ChEMBL document CHEMBL3988442, “University of Dundee, Small-Polar-MMV Screening Library” (2021).

A: 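Polyketide synthase Pks13, Mycobacterium tuberculosis (UniProt I6X8D2). Enzyme assay of the thioesterase domain of polyketide synthase 13; the read-out is not stated. Compounds at 30 µM. The record gives no direction; the compounds picked for IC50 retests had high values, so higher reads as stronger inhibition. About 67,000 compounds were tested under these conditions; 0.46% (about 300) showed 50% or more at least once.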
B: 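Enzyme assay of histidyl-tRNA synthetase; the read-out is not stated. Target: Histidine-tRNA ligase, Leishmania infantum (UniProt A4I591). Concentration: 30 µM. Higher reads as stronger inhibition (inferred: compounds with an IC50 in retests scored well above the rest). The assay is labelled LdHisRS but filed under L. infantum. About 69,000 compounds were tested under these conditions; 0.6% (about 410) showed 50% or more at least once.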

Values are the deposited “Percent Effect”, in %.
The record does not define 0% and 100%; most values in the screen are far below 50% and negative numbers occur (in some assays of this library far below -100).
The compounds are a random part of those screened.
A dash means the value is not listed here; it may have been measured.

| structure | A | B |
|---|---|---|
| `COCCN(Cc1ccncc1)C(=O)CCSCc1ccc(F)cc1` | -4.072 | 11.11 |
| `CNC(=O)[C@@H](c1ccccc1F)N1CCC[C@H]1C(=O)NC1CC1` | -32.89 | 13.89 |
| `CSc1ccc(-c2noc(CN(Cc3ccccc3)C(C)C)n2)cc1` | -3.992 | 12.36 |
| `CCCN1CCN(C(=O)c2cccnc2-n2cncn2)CC1` | -13.1 | 23.29 |
| `Cn1ccc2c(C(=O)N3CCN(C(=O)C4CCCC4)CC3)cccc21` | -3.029 | 10.96 |
| `C[C@@H](NCc1cccc(Cl)c1)c1onc(-c2ccc(F)cc2)c1C(=O)O` | -3.242 | 24.32 |
| `COCCN1CCC2(CCN(Cc3ccc(OC)cc3)CC2)C1=O` | -53.74 | 17.31 |
| `CC(C)CN1CC(C(=O)NCCNc2ncccn2)CC1=O` (stereo unspecified) | 0.02271 | 13.16 |
| `NC(=O)CC1CC2(CCNCC2)c2cc(F)ccc21` (stereo unspecified) | -2.325 | 7.921 |
| `COc1ccccc1N1CCN(C(=O)CCn2ccc(C)n2)CC1` | -42.29 | 4.11 |
| `COCC(C)(O)CNC(=O)c1cc(-c2ccc(F)cc2)nn1C` (stereo unspecified) | -4.482 | 9.333 |
| `CCNC(=O)NC(=O)CNC(C)(CC)c1nc(C)cs1` (stereo unspecified) | -33.85 | 9.375 |
| `Cc1cc(C)n(C2CCCN(C(=O)CN(C)C3CC3)C2)n1` (stereo unspecified) | -5.25 | 11.29 |
| `c1ccc(N2CCOC(Cc3cccnc3)C2)cc1` (stereo unspecified) | 5.774 | 5.263 |
| `Cn1cc(CNCC(c2ccc(Cl)cc2)n2cccn2)cn1` (stereo unspecified) | -20.43 | 12.5 |
| `CCN1CC(C(=O)N2CCN(c3cnn(C)c(=O)c3)CC2)CCC1=O` (stereo unspecified) | -26.99 | 3.333 |
| `O=C(NCC(=O)N1CCCC(c2ccccc2)CC1)c1ccoc1` (stereo unspecified) | -4.895 | 10.26 |
| `Cc1ccccc1C1(C(=O)NCCN(C)C)CCOCC1` | -10.68 | 6.481 |
| `CSc1ccc(C(=O)N2CCCC(Nc3ccc(F)cc3)C2)cc1` (stereo unspecified) | -10.48 | 13.6 |
| `CCOc1ccc(NC(=O)NCCS(=O)(=O)CC)cc1C` | -35.13 | 9.326 |
| `CCN1CCNC(=O)C12CCN(C(=O)Cc1ccccn1)CC2` | 2.159 | 7.692 |
| `Cc1ccc(C)c(OCCN(C)C(=O)CCc2cn[nH]c2)c1` | -4.168 | 6.557 |
| `Cc1ccc(C)c(C(=O)CN2C(=O)c3ccccc3CS2(=O)=O)c1` | 22.31 | 5.769 |
| `Cc1ncsc1CN1C[C@H]2CC[C@@H]1CN(Cc1ccccc1)C2` | -22.06 | 29.17 |
| `O=C(c1n[nH]cc1Cl)N1CCCC(n2nnc3cc(F)ccc32)C1` (stereo unspecified) | -17.34 | 7.292 |
| `CN(CCc1cccs1)CCc1nccs1` | -15.45 | 9.333 |
| `CN(C)CC(=O)N1CCCCC1c1nc(N)ncc1-c1ccccc1` (stereo unspecified) | -14.83 | 4 |
| `CCSc1ccc(C(=O)N2CCCC2C(=O)N2CCOCC2)cn1` (stereo unspecified) | -5.971 | 17.39 |
| `Cc1noc(C2(C)CCCN(C(=O)c3cnn(C)c3)C2)n1` (stereo unspecified) | -2.152 | -5.263 |
| `O=C(O)[C@@H]1CN(C2CCCCC2)C[C@H]1C1CC1` | -27.7 | 1.754 |
| `CN(Cc1nncn1C)C(=O)c1cc(COc2ccccc2)[nH]n1` | 5.913 | 5.882 |
| `Cc1ccc2c(c1)c(CNC(C)Cn1ccnc1)nn2C` (stereo unspecified) | -55.04 | 14.71 |
| `CNC(=O)[C@@]12CCO[C@@H]1CCN(Cc1scnc1C)C2` | -8.043 | 2.913 |
| `Cc1ccc(CN(C)C(=O)NCC(=O)NC(C)(C)C)s1` | -30.94 | 11.43 |
| `COCCN1C(=O)CC[C@]12CC[C@@H](NCc1cccnc1OC)CC2` | -18.84 | 21.05 |
| `CCNC(=O)c1ncn2c1CN(C)S(=O)(=O)c1ccccc1-2` | 5.416 | -1.905 |
| `CCN1C(=O)CCC12CCCN(Cc1ccc(F)cc1)CC2` (stereo unspecified) | -17.43 | 15.6 |
| `CC(=O)Nc1ccccc1Sc1nc(Br)nn1C` | -1.194 | -4.11 |
| `c1cc(CN2CCCC2c2noc(C3CC3)n2)on1` (stereo unspecified) | -10.71 | 22.61 |
| `Cn1nc(C(=O)N2CCOCC2)c2c1CN(CC1CC1)C2` | - | 13.64 |
| `Cc1ccc2c(c1)CN(C(=O)c1cnc(C)cn1)C(CN(C)C)CO2` (stereo unspecified) | -30.4 | 3.125 |
| `N#Cc1c(F)cccc1N1CCC(C(=O)Nc2nccs2)CC1` | 24.85 | 26.83 |
| `O=C(O)c1cc(-c2cccnc2)cc(S(=O)(=O)NCc2ccccn2)c1` | -27.96 | 23.08 |
| `Cc1cc(NC(=O)CCN2CCCCC2Cn2cccn2)no1` (stereo unspecified) | -4.984 | 10.53 |
| `CCc1cnc(N)nc1NC(C)c1cnn(C)c1` (stereo unspecified) | -15.75 | 26.51 |

Some entries from above, unchanged:

- COCCN1CCC2(CCN(Cc3ccc(OC)cc3)CC2)C1=O | A: -53.74%; B: 17.31%
- CCN1C(=O)CCC12CCCN(Cc1ccc(F)cc1)CC2 (stereo unspecified) | A: -17.43%; B: 15.6%
- Cc1ccc2c(c1)CN(C(=O)c1cnc(C)cn1)C(CN(C)C)CO2 (stereo unspecified) | A: -30.4%; B: 3.125%